Values of other authors, collected in article PMC11213733, “Computational approaches identify a transcriptomic fingerprint of drug-induced structural cardiotoxicity” (Cell Biology and Toxicology, 2024).
Structures can show the parent of a compound that is named as a salt.

Settings: ref FDA label, cited from earlier work

## CCCCc1oc2ccccc2c1C(=O)c1cc(I)c(OCCN(CC)CC)c(I)c1 [Amiodarone HCl]
FDA label references heart failure or a decrease in left ventricular ejection fraction
  Structural cardiotoxin?: Y
Compound annotation
  Functional cardiotoxin?: Y
